Assay results published in patent US10385080B2, “STAT6 inhibitors” (Board of Regents, The University of Texas System, priority 2013, dated 2019).

System: sensitization of Th2 cells to ovalbumin
Assay: Site of activity: intranasal versus intraperitoneal inhibitor during OVA/Alum sensitization
Type: in vivo, mice
Conditions: intranasal every other day

SMILES	site of activity after intranasal administration
CC(=CC(=O)NC1CCCCN(CC(=O)N(C)c2ccccc2)C1=O)c1ccc(C(F)(F)P(=O)(OCOC(=O)C(C)(C)C)OCOC(=O)C(C)(C)C)cc1 (centres unmarked) [PM-43I]	restricted to the lung
C/C(=C\C(=O)N[C@H](C(=O)N1CCC[C@H]1C(=O)N1CCCc2ccccc21)C(C)(C)C)c1ccc(C(F)(F)P(=O)(OCOC(=O)C(C)(C)C)OCOC(=O)C(C)(C)C)cc1 [PM-86I]	restricted to the lung
